Data published in patent US20160319330.

Sequences of proteins named here, by UniProt entry; tags and fusion partners are left off. Residues count along the entry.
UniProt Q16552, 24-155: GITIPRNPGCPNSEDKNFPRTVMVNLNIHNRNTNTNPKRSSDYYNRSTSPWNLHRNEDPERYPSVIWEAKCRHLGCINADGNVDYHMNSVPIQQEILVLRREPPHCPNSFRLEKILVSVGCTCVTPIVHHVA

What was measured:
IL17RA = IL17RA (UniProt Q96F46); assay: binding assay; conditions: aptamer from Chen et al. 2011; aptamer-avidin-oligonucleotide bound to tissue proteins on nitrocellulose in SELEX buffer 30 min, detected by PCR and array; protein in an extract; single-stranded DNA
IL17 = IL17 (UniProt Q16552); assay: binding assay; conditions: aptamer from Korean Patent 10-1276519; aptamer-avidin-oligonucleotide bound to tissue proteins on nitrocellulose in SELEX buffer 30 min, detected by PCR and array; protein in an extract

Row | Sequence | binding result (IL17RA) | binding result (IL17)
1 | ACGCGCTAGGATCAAAGCTGCACTGAAGTG [IL17RA aptamer] | binds | 
2 | GGUCUAGCCGGAGGAGUCAGUAAUCGGUAGACC [IL17 aptamer] |  | binds

Where cells or extracts were used, other partners may take part.
